Where a name gives a salt, the structure may show the parent alone. Some well-known active drugs show little effect in this data set, so a weak value is uncertain.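 The three lines are all high-grade serous ovarian cancer cells with differing chemosensitivity; OVCAR3 is described as chemosensitive. Toxicity was normalized between DMSO vehicle wells and fully lysed wells, the score comes from a fitted multi-dose response curve, and a score above 5 was counted as drug sensitivity.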
What was measured:
Test in all cases: drug sensitivity score (DSS2, cytotoxicity, CellTox Green); higher = more cytotoxic / more sensitive; extreme values may be limits of the assay
Conditions in all cases: 72 h; doses 0.5, 1, 5 µM
[1] = system: OVCAR4
[2] = system: OVCAR3
[3] = system: Kuramochi

SMILES	drug sensitivity score [1]	drug sensitivity score [2]	drug sensitivity score [3]
CC(=O)Oc1ccccc1C(=O)Nc1ncc([N+](=O)[O-])s1 [Nitazoxanide]	0 DSS	0 DSS	0 DSS
CC(=O)Nc1ccc(NC(=S)NC(=O)c2ccc(C(C)(C)C)cc2)cc1 [Tenovin-1]	0 DSS	0 DSS	0 DSS
C=C(c1ccc(C(=O)O)cc1)c1cc2c(cc1C)C(C)(C)CCC2(C)C [Bexarotene]	0 DSS	0 DSS	0 DSS
Nc1c(Br)cc(Br)cc1CN[C@H]1CC[C@H](O)CC1 [Ambroxol]	0 DSS	0 DSS	0 DSS
CCN(CC)CC(=O)Nc1c(C)cccc1C [Lidocaine]	2.2 DSS	1 DSS	0 DSS
CC1=C(/C=C/C(C)=C\C=C\C(C)=C\C(=O)O)C(C)(C)CCC1 [9-cis-Retinoic acid]	0 DSS	0 DSS	0 DSS
CCn1c2ccccc2c2cc(CNC)ccc21 [PhiKan 083 hydrochloride]	0 DSS	0 DSS	0 DSS
CC(=O)N[C@@H](CS)C(=O)O [Acetylcysteine]	0 DSS	0 DSS	0 DSS
O=C(O)C[C@H](O)C[C@H](O)/C=C/c1c(C2CC2)nc2ccccc2c1-c1ccc(F)cc1 [Pitavastatin (Calcium)]	0 DSS	0 DSS	0 DSS
CCc1c2c(nc3ccc(OC(=O)N4CCC(N5CCCCC5)CC4)cc13)-c1cc3c(c(=O)n1C2)COC(=O)[C@]3(O)CC [Irinotecan]	0 DSS	0 DSS	0 DSS
COCCCOc1ccnc(C[S+]([O-])c2nc3ccccc3[nH]2)c1C (configuration not stated) [Rabeprazole (sodium)]	0 DSS	0 DSS	0 DSS
CCCCc1oc2ccc(NS(C)(=O)=O)cc2c1C(=O)c1ccc(OCCCN(CCCC)CCCC)cc1 [Dronedarone]	0.2 DSS	0.3 DSS	0 DSS
C[C@H](Oc1cc(-c2cnn(C3CCNCC3)c2)cnc1N)c1c(Cl)ccc(F)c1Cl [(S)-Crizotinib]	0 DSS	0 DSS	0 DSS
c1ccc2c(CCNc3ccc(Nc4ccncc4)cc3)c[nH]c2c1 [Serdemetan]	0 DSS	0 DSS	0 DSS
S=c1nc[nH]c2nc[nH]c12 [6-Mercaptopurine]	0 DSS	0 DSS	0 DSS
COc1ccc2c(c1)c(CC(=O)O)c(C)n2C(=O)c1ccc(Cl)cc1 [Indomethacin]	0 DSS	0 DSS	0 DSS
COc1cc([C@@H]2c3cc4c(cc3[C@H](O)[C@H]3COC(=O)[C@H]23)OCO4)cc(OC)c1OC [Podofilox]	2.1 DSS	7.7 DSS	2.6 DSS
COc1cc2nccc(Oc3ccc(NC(=O)C4(C(=O)Nc5ccc(F)cc5)CC4)cc3)c2cc1OC [Cabozantinib (S-malate)]	0 DSS	0 DSS	0 DSS
COC1=C(OC)C(=O)C(CCCCCCCCCCO)=C(C)C1=O [Idebenone]	0 DSS	0 DSS	0 DSS
CC(C(=O)O)c1ccc2c(c1)[nH]c1ccc(Cl)cc12 (configuration not stated) [Carprofen]	0 DSS	0.5 DSS	0.6 DSS

SMILES	drug sensitivity score [1]	drug sensitivity score [2]	drug sensitivity score [3]
CCC(Sc1nnc2c(n1)[nH]c1ccccc12)C(=O)N1c2ccccc2Sc2ccccc21 (configuration not stated) [Inauhzin]	0 DSS	0 DSS	0 DSS
NCCNc1ccc(NCCN)c2c1C(=O)c1ccncc1C2=O [Pixantrone (dimaleate)]	0 DSS	0 DSS	0 DSS
CC(c1cc2ccccc2s1)N(O)C(N)=O (configuration not stated) [Zileuton]	0 DSS	0 DSS	0 DSS
OC[C@@H](O)[C@@H](O)[C@H](O)[C@H](O)CO [D-Mannitol]	0 DSS	0 DSS	0 DSS
O=[N+]([O-])c1ccc(O)c2ncccc12 [Nitroxoline]	0.1 DSS	0 DSS	0 DSS
Cc1[nH]c2ccccc2c1CCNCc1ccc(/C=C/C(=O)NO)cc1 [Panobinostat]	2.8 DSS	9.7 DSS	10.1 DSS
O=C(O)c1cc(O)c(O)c(O)c1 [Gallic acid (hydrate)]	0 DSS	0 DSS	0 DSS
CC(C)(CO)c1cc2cc(NC(=O)C3(c4ccc5c(c4)OC(F)(F)O5)CC3)c(F)cc2n1C[C@@H](O)CO [Tezacaftor]	0 DSS	0 DSS	0 DSS
COc1ccc(C2=N[C@@H](c3ccc(Cl)cc3)[C@@H](c3ccc(Cl)cc3)N2C(=O)N2CCNC(=O)C2)c(OC(C)C)c1 [Nutlin-3a]	0 DSS	0 DSS	0 DSS
O=C1c2cccc(O)c2C(=O)c2c(O)cccc21 [Danthron]	0 DSS	0 DSS	0 DSS
C#CCN[C@@H]1CCc2ccccc21 [Rasagiline (mesylate)]	0 DSS	0 DSS	0 DSS
C#Cc1cccc(Nc2ncnc3cc(OCCOC)c(OCCOC)cc23)c1 [Erlotinib]	0 DSS	0 DSS	0 DSS
O=C1Nc2ccc(Cl)cc2[C@@](C#CC2CC2)(C(F)(F)F)O1 [Efavirenz]	0 DSS	0 DSS	0 DSS
C=C[C@]1(C)CC[C@@H](C(=C)C)C[C@H]1C(=C)C [β-Elemene]	0 DSS	0.7 DSS	0 DSS
C=CC[C@@H]1/C=C(\C)C[C@H](C)C[C@H](OC)[C@H]2O[C@@](O)(C(=O)C(=O)N3CCCC[C@H]3C(=O)O[C@H](/C(C)=C/[C@@H]3CC[C@@H](O)[C@H](OC)C3)[C@H](C)[C@@H](O)CC1=O)[C@H](C)C[C@@H]2OC [Tacrolimus (monohydrate)]	0 DSS	0 DSS	0 DSS
Oc1c(I)cc(Cl)c2cccnc12 [Clioquinol]	0 DSS	0 DSS	0 DSS
CC(=O)N[C@@H](CCC(N)=O)C(=O)O [Aceglutamide]	0 DSS	0 DSS	0 DSS
Cc1ccc2ccc(C(Nc3ccccc3)c3ccccc3)c(O)c2n1 (configuration not stated)	0 DSS	0 DSS	0 DSS
Cc1c(C)c2c(c(C)c1O)CC[C@@](C)(CCC[C@H](C)CCC[C@H](C)CCCC(C)C)O2 [α-Vitamin E]	0 DSS	0 DSS	0 DSS

Record cards, as listed above:
C#Cc1cccc(Nc2ncnc3cc(OCCOC)c(OCCOC)cc23)c1 [Erlotinib] as listed: drug sensitivity score [1]: 0 DSS; drug sensitivity score [2]: 0 DSS; drug sensitivity score [3]: 0 DSS
CC(=O)N[C@@H](CCC(N)=O)C(=O)O [Aceglutamide] as listed: drug sensitivity score [1]: 0 DSS; drug sensitivity score [2]: 0 DSS; drug sensitivity score [3]: 0 DSS
NCCNc1ccc(NCCN)c2c1C(=O)c1ccncc1C2=O [Pixantrone (dimaleate)] as listed: drug sensitivity score [1]: 0 DSS; drug sensitivity score [2]: 0 DSS; drug sensitivity score [3]: 0 DSS
